To fix the notation:
T1: E3 ubiquitin-protein ligase Midline-1 (UniProt O15344)
T1 sequence: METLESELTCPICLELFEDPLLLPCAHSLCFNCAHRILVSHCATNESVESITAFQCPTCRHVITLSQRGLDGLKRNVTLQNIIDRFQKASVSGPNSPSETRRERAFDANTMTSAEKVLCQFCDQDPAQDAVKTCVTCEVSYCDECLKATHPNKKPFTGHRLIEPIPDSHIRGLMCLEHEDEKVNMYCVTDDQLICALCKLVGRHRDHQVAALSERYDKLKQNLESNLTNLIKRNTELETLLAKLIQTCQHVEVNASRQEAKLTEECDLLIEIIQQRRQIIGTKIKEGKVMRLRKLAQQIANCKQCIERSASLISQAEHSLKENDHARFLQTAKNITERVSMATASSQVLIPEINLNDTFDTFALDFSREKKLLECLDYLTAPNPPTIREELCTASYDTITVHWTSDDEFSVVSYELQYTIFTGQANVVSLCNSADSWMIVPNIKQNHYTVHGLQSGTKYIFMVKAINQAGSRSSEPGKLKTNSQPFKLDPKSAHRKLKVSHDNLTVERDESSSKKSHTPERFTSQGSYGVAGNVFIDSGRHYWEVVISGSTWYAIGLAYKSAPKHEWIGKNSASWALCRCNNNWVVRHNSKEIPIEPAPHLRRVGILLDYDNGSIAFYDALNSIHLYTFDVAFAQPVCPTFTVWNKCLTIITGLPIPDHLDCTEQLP

Protein sequences, listed by entry. Tags and fused reporters are not part of them.
UniProt Q9BUQ8: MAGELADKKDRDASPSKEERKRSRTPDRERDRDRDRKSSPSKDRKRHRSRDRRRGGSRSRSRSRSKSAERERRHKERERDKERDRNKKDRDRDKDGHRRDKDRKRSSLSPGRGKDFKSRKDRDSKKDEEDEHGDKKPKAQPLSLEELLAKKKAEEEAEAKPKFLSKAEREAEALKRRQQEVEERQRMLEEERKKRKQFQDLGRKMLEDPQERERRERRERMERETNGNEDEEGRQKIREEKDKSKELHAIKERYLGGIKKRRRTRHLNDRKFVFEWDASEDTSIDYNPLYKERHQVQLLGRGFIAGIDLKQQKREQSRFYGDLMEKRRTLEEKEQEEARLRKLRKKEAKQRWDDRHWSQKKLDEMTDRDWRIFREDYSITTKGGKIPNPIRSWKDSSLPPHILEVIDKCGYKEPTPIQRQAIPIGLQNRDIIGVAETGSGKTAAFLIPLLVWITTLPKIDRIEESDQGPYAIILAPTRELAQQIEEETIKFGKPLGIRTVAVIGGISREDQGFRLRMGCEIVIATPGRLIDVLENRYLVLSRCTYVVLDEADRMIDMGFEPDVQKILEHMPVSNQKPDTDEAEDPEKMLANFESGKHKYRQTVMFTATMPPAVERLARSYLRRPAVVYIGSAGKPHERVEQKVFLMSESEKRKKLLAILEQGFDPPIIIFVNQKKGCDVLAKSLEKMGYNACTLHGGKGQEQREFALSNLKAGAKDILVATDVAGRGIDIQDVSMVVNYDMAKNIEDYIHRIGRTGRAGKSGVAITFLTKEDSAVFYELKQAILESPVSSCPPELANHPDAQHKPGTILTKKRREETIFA
UniProt Q9UJV9: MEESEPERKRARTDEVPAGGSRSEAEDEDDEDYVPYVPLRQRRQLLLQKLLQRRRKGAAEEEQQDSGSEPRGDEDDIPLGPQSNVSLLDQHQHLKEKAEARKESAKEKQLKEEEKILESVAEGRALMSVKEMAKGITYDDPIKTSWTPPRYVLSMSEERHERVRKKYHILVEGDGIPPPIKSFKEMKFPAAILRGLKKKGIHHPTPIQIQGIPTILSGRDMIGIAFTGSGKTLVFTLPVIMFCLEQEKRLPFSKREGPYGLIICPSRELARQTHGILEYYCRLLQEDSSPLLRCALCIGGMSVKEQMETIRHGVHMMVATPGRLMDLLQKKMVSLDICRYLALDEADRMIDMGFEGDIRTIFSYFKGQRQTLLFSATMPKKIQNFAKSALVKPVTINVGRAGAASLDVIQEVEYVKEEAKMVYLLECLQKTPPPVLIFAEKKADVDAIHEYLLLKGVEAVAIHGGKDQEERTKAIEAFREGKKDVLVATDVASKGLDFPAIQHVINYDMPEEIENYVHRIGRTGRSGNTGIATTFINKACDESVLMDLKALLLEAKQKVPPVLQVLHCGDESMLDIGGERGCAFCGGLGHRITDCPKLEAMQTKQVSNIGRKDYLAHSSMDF
UniProt P98175: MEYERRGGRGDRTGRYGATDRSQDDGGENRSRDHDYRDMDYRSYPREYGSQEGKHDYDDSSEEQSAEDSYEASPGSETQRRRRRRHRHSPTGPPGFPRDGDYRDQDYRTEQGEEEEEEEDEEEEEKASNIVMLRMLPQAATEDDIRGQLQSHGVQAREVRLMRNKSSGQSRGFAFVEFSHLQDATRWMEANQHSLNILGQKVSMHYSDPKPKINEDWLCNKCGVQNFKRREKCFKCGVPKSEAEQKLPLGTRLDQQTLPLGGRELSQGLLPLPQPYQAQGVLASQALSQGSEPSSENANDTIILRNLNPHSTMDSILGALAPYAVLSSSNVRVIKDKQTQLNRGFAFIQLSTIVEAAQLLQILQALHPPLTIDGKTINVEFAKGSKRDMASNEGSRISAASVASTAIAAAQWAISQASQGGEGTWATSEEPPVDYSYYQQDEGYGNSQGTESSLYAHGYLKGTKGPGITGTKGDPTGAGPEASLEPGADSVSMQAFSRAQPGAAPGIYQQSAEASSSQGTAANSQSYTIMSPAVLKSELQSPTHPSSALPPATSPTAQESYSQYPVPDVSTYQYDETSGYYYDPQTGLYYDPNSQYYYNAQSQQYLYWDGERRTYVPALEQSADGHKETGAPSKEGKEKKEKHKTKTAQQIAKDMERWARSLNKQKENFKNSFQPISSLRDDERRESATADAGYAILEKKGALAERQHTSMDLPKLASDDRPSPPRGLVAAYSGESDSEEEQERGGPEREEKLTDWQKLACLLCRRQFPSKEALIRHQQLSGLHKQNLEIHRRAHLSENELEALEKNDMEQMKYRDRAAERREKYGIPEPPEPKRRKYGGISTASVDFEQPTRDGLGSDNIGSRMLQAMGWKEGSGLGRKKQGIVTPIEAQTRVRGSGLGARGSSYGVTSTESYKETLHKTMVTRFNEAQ
UniProt P40938: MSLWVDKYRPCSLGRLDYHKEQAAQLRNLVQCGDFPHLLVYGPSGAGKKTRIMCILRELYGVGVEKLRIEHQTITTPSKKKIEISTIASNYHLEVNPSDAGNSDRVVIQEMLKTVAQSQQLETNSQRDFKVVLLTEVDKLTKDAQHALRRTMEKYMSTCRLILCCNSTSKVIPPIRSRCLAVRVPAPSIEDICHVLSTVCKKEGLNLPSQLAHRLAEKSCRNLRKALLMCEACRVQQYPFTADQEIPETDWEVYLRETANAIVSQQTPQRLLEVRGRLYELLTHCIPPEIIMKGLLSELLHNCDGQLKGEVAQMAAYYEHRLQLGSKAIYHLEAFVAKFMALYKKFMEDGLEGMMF
UniProt Q14692: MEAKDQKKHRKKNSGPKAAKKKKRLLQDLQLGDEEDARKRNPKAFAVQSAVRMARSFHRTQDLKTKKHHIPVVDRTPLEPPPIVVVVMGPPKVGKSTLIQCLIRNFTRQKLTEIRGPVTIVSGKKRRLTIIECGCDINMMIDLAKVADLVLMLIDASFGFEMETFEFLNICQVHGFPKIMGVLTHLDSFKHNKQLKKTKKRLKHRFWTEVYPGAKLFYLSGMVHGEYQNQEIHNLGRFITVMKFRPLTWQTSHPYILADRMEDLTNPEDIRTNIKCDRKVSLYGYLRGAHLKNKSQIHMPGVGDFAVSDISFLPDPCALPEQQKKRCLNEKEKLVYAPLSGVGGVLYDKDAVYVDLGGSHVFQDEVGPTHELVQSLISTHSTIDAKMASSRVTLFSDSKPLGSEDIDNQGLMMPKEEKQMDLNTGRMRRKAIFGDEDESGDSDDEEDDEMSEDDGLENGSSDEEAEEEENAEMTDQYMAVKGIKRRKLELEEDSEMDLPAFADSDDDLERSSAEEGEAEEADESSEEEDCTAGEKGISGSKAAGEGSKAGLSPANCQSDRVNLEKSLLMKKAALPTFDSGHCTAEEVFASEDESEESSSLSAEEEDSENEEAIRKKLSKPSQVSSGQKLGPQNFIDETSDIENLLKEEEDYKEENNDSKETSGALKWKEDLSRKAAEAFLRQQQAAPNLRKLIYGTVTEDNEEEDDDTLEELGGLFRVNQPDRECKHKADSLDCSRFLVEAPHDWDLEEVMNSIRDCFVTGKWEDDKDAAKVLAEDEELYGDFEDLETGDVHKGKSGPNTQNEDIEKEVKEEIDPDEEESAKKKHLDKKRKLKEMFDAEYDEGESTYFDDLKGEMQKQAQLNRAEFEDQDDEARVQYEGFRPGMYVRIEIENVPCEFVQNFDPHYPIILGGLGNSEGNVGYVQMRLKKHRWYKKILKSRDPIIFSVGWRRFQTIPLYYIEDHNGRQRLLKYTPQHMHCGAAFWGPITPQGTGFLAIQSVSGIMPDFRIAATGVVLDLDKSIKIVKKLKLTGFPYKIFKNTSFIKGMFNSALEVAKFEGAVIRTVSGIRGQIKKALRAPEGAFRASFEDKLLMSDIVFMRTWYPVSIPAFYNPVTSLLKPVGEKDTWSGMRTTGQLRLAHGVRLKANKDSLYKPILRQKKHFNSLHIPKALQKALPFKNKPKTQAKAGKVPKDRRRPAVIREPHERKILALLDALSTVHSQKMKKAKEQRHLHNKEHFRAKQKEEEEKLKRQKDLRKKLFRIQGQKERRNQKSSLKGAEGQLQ
UniProt Q96SB4: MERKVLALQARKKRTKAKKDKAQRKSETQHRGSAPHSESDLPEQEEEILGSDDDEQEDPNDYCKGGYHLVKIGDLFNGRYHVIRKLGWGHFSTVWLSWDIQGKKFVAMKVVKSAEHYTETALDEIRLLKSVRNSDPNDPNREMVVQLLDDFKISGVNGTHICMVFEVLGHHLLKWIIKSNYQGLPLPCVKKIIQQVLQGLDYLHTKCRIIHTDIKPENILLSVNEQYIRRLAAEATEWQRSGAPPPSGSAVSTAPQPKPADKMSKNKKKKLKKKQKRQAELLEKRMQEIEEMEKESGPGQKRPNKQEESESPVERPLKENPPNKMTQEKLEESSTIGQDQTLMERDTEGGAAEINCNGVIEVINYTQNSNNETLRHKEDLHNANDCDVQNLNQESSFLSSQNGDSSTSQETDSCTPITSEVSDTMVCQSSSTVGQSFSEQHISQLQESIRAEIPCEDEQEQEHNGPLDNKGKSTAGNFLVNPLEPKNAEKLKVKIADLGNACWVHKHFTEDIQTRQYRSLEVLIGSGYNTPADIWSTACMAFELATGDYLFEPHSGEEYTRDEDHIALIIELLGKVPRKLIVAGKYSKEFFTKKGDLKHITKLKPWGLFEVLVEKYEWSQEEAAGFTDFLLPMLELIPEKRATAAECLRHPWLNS
UniProt Q07955: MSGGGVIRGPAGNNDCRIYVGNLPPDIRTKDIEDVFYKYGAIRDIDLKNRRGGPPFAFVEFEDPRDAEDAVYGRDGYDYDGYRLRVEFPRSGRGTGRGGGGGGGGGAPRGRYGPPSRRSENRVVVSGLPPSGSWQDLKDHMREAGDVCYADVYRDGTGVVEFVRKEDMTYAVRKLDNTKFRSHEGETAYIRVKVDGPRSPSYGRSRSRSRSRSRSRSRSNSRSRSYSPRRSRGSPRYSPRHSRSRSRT
UniProt P62316: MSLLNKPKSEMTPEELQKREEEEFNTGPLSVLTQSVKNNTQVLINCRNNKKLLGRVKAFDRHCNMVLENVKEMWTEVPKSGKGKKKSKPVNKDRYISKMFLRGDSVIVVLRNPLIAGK
UniProt P62318: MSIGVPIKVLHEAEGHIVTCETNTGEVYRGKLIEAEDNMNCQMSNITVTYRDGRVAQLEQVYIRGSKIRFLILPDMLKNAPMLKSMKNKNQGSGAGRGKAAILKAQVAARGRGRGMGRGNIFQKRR
UniProt O75533: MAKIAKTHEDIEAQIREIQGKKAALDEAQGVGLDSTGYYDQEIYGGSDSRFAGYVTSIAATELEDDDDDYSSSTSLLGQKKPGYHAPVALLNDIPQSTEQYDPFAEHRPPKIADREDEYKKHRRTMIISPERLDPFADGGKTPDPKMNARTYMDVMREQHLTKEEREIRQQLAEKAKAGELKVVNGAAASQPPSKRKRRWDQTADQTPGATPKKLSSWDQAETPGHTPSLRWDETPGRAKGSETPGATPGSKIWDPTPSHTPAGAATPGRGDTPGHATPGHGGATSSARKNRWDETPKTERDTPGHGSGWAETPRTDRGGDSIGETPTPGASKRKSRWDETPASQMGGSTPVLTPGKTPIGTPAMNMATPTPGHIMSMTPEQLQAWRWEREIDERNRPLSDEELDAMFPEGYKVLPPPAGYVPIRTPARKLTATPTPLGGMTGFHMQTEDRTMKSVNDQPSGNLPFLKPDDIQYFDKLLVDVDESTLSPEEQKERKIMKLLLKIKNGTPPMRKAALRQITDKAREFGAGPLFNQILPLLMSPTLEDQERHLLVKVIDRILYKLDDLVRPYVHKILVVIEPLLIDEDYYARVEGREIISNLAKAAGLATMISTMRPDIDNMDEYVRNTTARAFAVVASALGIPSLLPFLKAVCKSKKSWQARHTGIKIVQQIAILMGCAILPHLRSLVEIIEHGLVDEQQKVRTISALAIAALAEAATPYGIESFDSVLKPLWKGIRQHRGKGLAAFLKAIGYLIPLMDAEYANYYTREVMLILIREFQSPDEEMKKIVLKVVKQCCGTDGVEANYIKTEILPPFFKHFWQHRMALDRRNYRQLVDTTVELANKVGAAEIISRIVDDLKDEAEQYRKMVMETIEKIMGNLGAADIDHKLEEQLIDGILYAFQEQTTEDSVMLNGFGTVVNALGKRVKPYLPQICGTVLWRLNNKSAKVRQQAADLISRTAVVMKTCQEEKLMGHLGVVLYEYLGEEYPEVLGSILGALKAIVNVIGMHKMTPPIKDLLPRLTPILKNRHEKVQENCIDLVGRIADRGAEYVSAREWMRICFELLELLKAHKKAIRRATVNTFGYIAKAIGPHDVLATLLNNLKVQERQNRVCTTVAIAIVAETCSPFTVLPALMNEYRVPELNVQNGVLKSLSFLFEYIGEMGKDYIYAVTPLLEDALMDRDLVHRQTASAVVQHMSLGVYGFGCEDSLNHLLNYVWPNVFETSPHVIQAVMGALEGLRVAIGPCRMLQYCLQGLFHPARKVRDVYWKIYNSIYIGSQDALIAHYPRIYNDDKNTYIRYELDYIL

B1: ATP-binding cassette sub-family D member 3 (protein, UniProt P28288 1-659)
chain: MAAFSKYLTARNSSLAGAAFLLLCLLHKRRRALGLHGKKSGKPPLQNNEKEGKKERAVVDKVFFSRLIQILKIMVPRTFCKETGYLVLIAVMLVSRTYCDVWMIQNGTLIESGIIGRSRKDFKRYLLNFIAAMPLISLVNNFLKYGLNELKLCFRVRLTKYLYEEYLQAFTYYKMGNLDNRIANPDQLLTQDVEKFCNSVVDLYSNLSKPFLDIVLYIFKLTSAIGAQGPASMMAYLVVSGLFLTRLRRPIGKMTITEQKYEGEYRYVNSRLITNSEEIAFYNGNKREKQTVHSVFRKLVEHLHNFILFRFSMGFIDSIIAKYLATVVGYLVVSRPFLDLSHPRHLKSTHSELLEDYYQSGRMLLRMSQALGRIVLAGREMTRLAGFTARITELMQVLKDLNHGKYERTMVSQQEKGIEGVQVIPLIPGAGEIIIADNIIKFDHVPLATPNGDVLIRDLNFEVRSGANVLICGPNGCGKSSLFRVLGELWPLFGGRLTKPERGKLFYVPQRPYMTLGTLRDQVIYPDGREDQKRKGISDLVLKEYLDNVQLGHILEREGGWDSVQDWMDVLSGGEKQRMAMARLFYHKPQFAILDECTSAVSVDVEGYIYSHCRKVGITLFTVSHRKSLWKHHEYYLHMDGRGNYEFKQITEDTVEFGS
B2: Methionine--tRNA ligase, cytoplasmic (protein, UniProt P56192 1-900)
chain: MRLFVSDGVPGCLPVLAAAGRARGRAEVLISTVGPEDCVVPFLTRPKVPVLQLDSGNYLFSTSAICRYFFLLSGWEQDDLTNQWLEWEATELQPALSAALYYLVVQGKKGEDVLGSVRRALTHIDHSLSRQNCPFLAGETESLADIVLWGALYPLLQDPAYLPEELSALHSWFQTLSTQEPCQRAAETVLKQQGVLALRPYLQKQPQPSPAEGRAVTNEPEEEELATLSEEEIAMAVTAWEKGLESLPPLRPQQNPVLPVAGERNVLITSALPYVNNVPHLGNIIGCVLSADVFARYSRLRQWNTLYLCGTDEYGTATETKALEEGLTPQEICDKYHIIHADIYRWFNISFDIFGRTTTPQQTKITQDIFQQLLKRGFVLQDTVEQLRCEHCARFLADRFVEGVCPFCGYEEARGDQCDKCGKLINAVELKKPQCKVCRSCPVVQSSQHLFLDLPKLEKRLEEWLGRTLPGSDWTPNAQFITRSWLRDGLKPRCITRDLKWGTPVPLEGFEDKVFYVWFDATIGYLSITANYTDQWERWWKNPEQVDLYQFMAKDNVPFHSLVFPCSALGAEDNYTLVSHLIATEYLNYEDGKFSKSRGVGVFGDMAQDTGIPADIWRFYLLYIRPEGQDSAFSWTDLLLKNNSELLNNLGNFINRAGMFVSKFFGGYVPEMVLTPDDQRLLAHVTLELQHYHQLLEKVRIRDALRSILTISRHGNQYIQVNEPWKRIKGSEADRQRAGTVTGLAVNIAALLSVMLQPYMPTVSATIQAQLQLPPPACSILLTNFLCTLPAGHQIGTVSPLFQKLENDQIESLRQRFGGGQAKTSPKPAVVETVTTAKPQQIQALMDEVTKQGNIVRELKAQKADKNEVAAEVAKLLDLKKQLAVAEGKPPEAPKGKKKK
B3: Luc7-like protein 3 (protein, UniProt O95232 1-432)
chain: MISAAQLLDELMGRDRNLAPDEKRSNVRWDHESVCKYYLCGFCPAELFTNTRSDLGPCEKIHDENLRKQYEKSSRFMKVGYERDFLRYLQSLLAEVERRIRRGHARLALSQNQQSSGAAGPTGKNEEKIQVLTDKIDVLLQQIEELGSEGKVEEAQGMMKLVEQLKEERELLRSTTSTIESFAAQEKQMEVCEVCGAFLIVGDAQSRVDDHLMGKQHMGYAKIKATVEELKEKLRKRTEEPDRDERLKKEKQEREEREKEREREREERERKRRREEEEREKERARDRERRKRSRSRSRHSSRTSDRRCSRSRDHKRSRSRERRRSRSRDRRRSRSHDRSERKHRSRSRDRRRSKSRDRKSYKHRSKSRDREQDRKSKEKEKRGSDDKKSSVKSGSREKQSEDTNTESKESDTKNEVNGTSEDIKSEGDTQSN
B4: Putative RNA-binding protein Luc7-like 2 (protein, UniProt Q9Y383 1-392)
chain: MSAQAQMRAMLDQLMGTSRDGDTTRQRIKFSDDRVCKSHLLNCCPHDVLSGTRMDLGECLKVHDLALRADYEIASKEQDFFFELDAMDHLQSFIADCDRRTEVAKKRLAETQEEISAEVAAKAERVHELNEEIGKLLAKVEQLGAEGNVEESQKVMDEVEKARAKKREAEEVYRNSMPASSFQQQKLRVCEVCSAYLGLHDNDRRLADHFGGKLHLGFIEIREKLEELKRVVAEKQEKRNQERLKRREEREREEREKLRRSRSHSKNPKRSRSREHRRHRSRSMSRERKRRTRSKSREKRHRHRSRSSSRSRSRSHQRSRHSSRDRSRERSKRRSSKERFRDQDLASCDRDRSSRDRSPRDRDRKDKKRSYESANGRSEDRRSSEEREAGEI

These are yes or no findings as the source states them, for the method shown. In cells and extracts the contact can be indirect. These calls come from enrichment with a bait or labelling near it, and not all partners need be listed. Sequences can lack the tags named with a protein.

For this assay, the target named is T1, E3 ubiquitin-protein ligase Midline-1. Briefly: affinity purification with mass spectrometry; MID1-FLAG expressed in HEK293T, lysate in TKM buffer (20 mM Tris pH 7.4, 100 mM KCl, 5 mM MgCl2, 0.5% NP40, 1 mM DTT), anti-FLAG M1 agarose overnight at 4 °C, 6 washes; untransfected cells as control; Q-Exactive, MaxQuant, 1% FDR.
As to “Probable ATP-dependent RNA helicase DDX20 (from UniProt Q9UHI6 1-824)”, the binding entry was “binds”.

For “Probable ATP-dependent RNA helicase DDX23 (from UniProt Q9BUQ8 1-820)”, the binding entry is “binds”.

Take “Probable ATP-dependent RNA helicase DDX41 (from UniProt Q9UJV9 1-622)”: the binding entry is given as “binds”.

Take “Proline-, glutamic acid- and leucine-rich protein 1 (from UniProt Q8IZL8 1-1130)”: the binding entry is recorded as “binds”.

In the case of “Prolyl 4-hydroxylase subunit alpha-1 (from UniProt P13674 18-534)”, the binding entry is on record as “binds”.

As for “Protein PRRC2A (from UniProt P48634 1-2157)”, the binding result is given as “binds”.

As to “Protein PRRC2C (from UniProt Q9Y520 1-2896)”, the binding entry was “binds”.

Turning to “Protein arginine N-methyltransferase 5 (from UniProt O14744 1-637)”, the binding result is given as “binds”.

With “Protein furry homolog-like (from UniProt O94915 1-3013)”, the binding result is “binds”.

On to “Putative pre-mRNA-splicing factor ATP-dependent RNA helicase DHX15 (from UniProt O43143 1-795)”, for which the binding entry is “binds”.

“RNA-binding motif protein, X chromosome (from UniProt P38159 1-391)”: the binding entry is recorded as “binds”.

With “RNA-binding protein 10 (from UniProt P98175 1-930)”, the binding entry is “binds”.

In the case of “Replication factor C subunit 3 (from UniProt P40938 1-356)”, the binding entry was “binds”.

With “Ribosome biogenesis protein BMS1 homolog (from UniProt Q14692 1-1282)”, the binding result is “binds”.

Consider “SRSF protein kinase 1 (from UniProt Q96SB4 1-655)”, for which the binding result is “binds”.

For the molecule “SRSF protein kinase 2 (from UniProt P78362 1-688)”, the binding entry is reported as “binds”.

“Serine/arginine-rich splicing factor 1 (from UniProt Q07955 1-248)”: the binding result is on record as “binds”.

For “Serine/threonine-protein kinase 38 (from UniProt Q15208 1-465)”, the binding result was “binds”.

Regarding “Serine/threonine-protein kinase MARK2 (from UniProt Q7KZI7 1-788)”, the binding result is given as “binds”.

Regarding “Small nuclear ribonucleoprotein Sm D2 (from UniProt P62316 1-118)”, the binding result is listed as “binds”.

Turning to “Small nuclear ribonucleoprotein Sm D3 (from UniProt P62318 1-126)”, the binding entry is recorded as “binds”.

As for “Spectrin alpha chain, non-erythrocytic 1 (from UniProt Q13813 1-2472)”, the binding result is reported as “binds”.

“Spectrin beta chain, non-erythrocytic 1 (from UniProt Q01082 1-2364)”: the binding entry is reported as “binds”.

On to “Splicing factor 3B subunit 1 (from UniProt O75533 1-1304)”, for which the binding result was “binds”.

As for “Splicing factor 3B subunit 3 (from UniProt Q15393 1-1217)”, the binding entry is on record as “binds”.

Consider “T-complex protein 1 subunit epsilon (from UniProt P48643 1-541)”, for which the binding entry was “binds”.

For “Telomere-associated protein RIF1 (from UniProt Q5UIP0 1-2472)”, the binding result is “binds”.

For “Tight junction protein ZO-2 (from UniProt Q9UDY2 1-1190)”, the binding result is listed as “binds”.

Regarding “Transitional endoplasmic reticulum ATPase (from UniProt P55072 1-806)”, the binding entry is recorded as “binds”.

“Tubulin beta-3 chain (from UniProt Q13509 1-450)”: the binding result was “binds”.

As for “Tubulin beta-4A chain (from UniProt P04350 1-444)”, the binding result is recorded as “binds”.

Regarding “U2 snRNP-associated SURP motif-containing protein (from UniProt O15042 1-1029)”, the binding entry is recorded as “binds”.

As for “U5 small nuclear ribonucleoprotein 200 kDa helicase (from UniProt O75643 1-2136)”, the binding result is given as “binds”.

With “Unconventional myosin-Ib (from UniProt O43795 1-1136)”, the binding entry is given as “binds”.

In the case of Vimentin (from UniProt P08670 1-466), the binding result is recorded as “binds”.

Regarding “Zinc finger CCCH-type antiviral protein 1 (from UniProt Q7Z2W4 1-902)”, the binding entry is “binds”.

Turning to B1, the binding entry is on record as “binds”.

For the molecule B2, the binding result was “binds”.

Consider B3, for which the binding result is reported as “binds”.

For the molecule B4, the binding entry was “binds”.

Source of the values: publication PMC5841321.
